This assay concerns the target T1, FLAG-Lin28b (mouse) (UniProt Q45KJ6).
T1 sequence: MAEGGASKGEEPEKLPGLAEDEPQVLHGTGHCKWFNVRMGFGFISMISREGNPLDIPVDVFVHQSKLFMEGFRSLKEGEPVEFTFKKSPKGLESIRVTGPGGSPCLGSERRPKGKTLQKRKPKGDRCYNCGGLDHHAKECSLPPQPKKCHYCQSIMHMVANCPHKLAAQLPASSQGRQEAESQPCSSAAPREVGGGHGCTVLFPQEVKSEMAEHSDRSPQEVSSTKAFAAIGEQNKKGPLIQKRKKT
In words: co-IP.

For one substance, binding results are on record in doi:10.1101/2023.01.12.523802.

No constants are given. Whether binding was seen depends on the method and setting. Binding seen in cells or lysates may run through a third protein. Where a sequence is shown, tags or fusion partners need not be part of it.

Take “TRIM71 protein that lacked the NHL domain (ΔNHL), 3xHA-tagged (human) (domain or fragment)”: the binding entry is “no binding”.
